The assay relates to MOLM14 cells. In words: Chou-Talalay drug combination analysis (alamarBlue) of AS or ART-838 with antileukemic drugs. The class given is cell-based, human. As to conditions: simultaneous 48 h, each drug at 2.25× single-drug IC50, CI<1 synergy, =1 additivity, >1 antagonism. As to the method: For each two-drug pair, dose-response curves were generated for each drug individually and for the two drugs combined. […] This design is based on the recommendation of Chou that combination experiments be performed with drugs combined in an equipotent ratio based on their respective single-drug IC50 values. Following a 48-hour incubation with each drug or drug pair, cytotoxicity assays were performed using alamarBlue as described above.
Each set of drug combinations was tested in at least three independent experiments, each in triplicate.
Sequences are depicted at the bottom of FIG. 5.
On the technique in general: Resazurin is reduced to fluorescent resorufin, in cell work by metabolically active cells.

In the case of `CO[C@@H]1[C@H](N(C)C(=O)c2ccccc2)C[C@H]2O[C@]1(C)n1c3ccccc3c3c4c(c5c6ccccc6n2c5c31)C(=O)NC4` [MID, midostaurin], the “combination index (CI) of the drug combined with AS” value is 1.3.

The values are drawn from US11554105B2, “Combinations of artemisinins, BCL-2 inhibitors, and kinase inhibitors for cancer treatment” (UNIVERSITY OF MARYLAND, BALTIMORE, priority 2018, dated 2023).
